Measurements reported in article doi:10.1101/2024.03.28.586926.

What was measured:
[1] = molecular target: Flag-FBXO2-C (FBXO2 with deletion of the F-box domain) (human); assay: co-IP
[2] = molecular target: Flag-FBXO2-N (FBXO2 without the FBA domain) (human); assay: co-IP

- binding [1]: binds
- binding [2]: no binding
B1: heat shock protein 47 (Hsp47), endogenous (protein, UniProt P50454 19-418)
chain: AEVKKPAAAAAPGTAEKLSPKAATLAERSAGLAFSLYQAMAKDQAVENILVSPVVVASSLGLVSLGGKATTASQAKAVLSAEQLRDEEVHAGLGELLRSLSNSTARNVTWKLGSRLYGPSSVSFADDFVRSSKQHYNCEHSKINFRDKRSALQSINEWAAQTTDGKLPEVTKDVERTDGALLVNAMFFKPHWDEKFHHKMVDNRGFMVTRSYTVGVMMMHRTGLYNYYDDEKEKLQIVEMPLAHKLSSLIILMPHHVEPLERLEKLLTKEQLKIWMGKMQKKAVAISLPKGVVEVTHDLQKHLAGLGLTEAIDKNKADLSRMSGKKDLYLASVFHATAFELDTDGNPFDQDIYGREELRSPKLFYADHPFIFLVRDTQSGSLLFIGRLVRPKGDKMRDEL

No constants are given. Whether binding was seen depends on the method and setting. In cells and extracts the contact can be indirect. For some assays here: Binding calls can cover weak binding; strength is not graded here.
